This is an account of results in patent publication US20100310549A1 (Bristol-Myers Squibb, published 2010).

Protein sequences, listed by entry. Tags and fused reporters are not part of them. Lines headed by an entry give the natural chain unless they say otherwise; changes in a name come on top. Residues count along the entry.
UniProt P35968, residues 20-1356: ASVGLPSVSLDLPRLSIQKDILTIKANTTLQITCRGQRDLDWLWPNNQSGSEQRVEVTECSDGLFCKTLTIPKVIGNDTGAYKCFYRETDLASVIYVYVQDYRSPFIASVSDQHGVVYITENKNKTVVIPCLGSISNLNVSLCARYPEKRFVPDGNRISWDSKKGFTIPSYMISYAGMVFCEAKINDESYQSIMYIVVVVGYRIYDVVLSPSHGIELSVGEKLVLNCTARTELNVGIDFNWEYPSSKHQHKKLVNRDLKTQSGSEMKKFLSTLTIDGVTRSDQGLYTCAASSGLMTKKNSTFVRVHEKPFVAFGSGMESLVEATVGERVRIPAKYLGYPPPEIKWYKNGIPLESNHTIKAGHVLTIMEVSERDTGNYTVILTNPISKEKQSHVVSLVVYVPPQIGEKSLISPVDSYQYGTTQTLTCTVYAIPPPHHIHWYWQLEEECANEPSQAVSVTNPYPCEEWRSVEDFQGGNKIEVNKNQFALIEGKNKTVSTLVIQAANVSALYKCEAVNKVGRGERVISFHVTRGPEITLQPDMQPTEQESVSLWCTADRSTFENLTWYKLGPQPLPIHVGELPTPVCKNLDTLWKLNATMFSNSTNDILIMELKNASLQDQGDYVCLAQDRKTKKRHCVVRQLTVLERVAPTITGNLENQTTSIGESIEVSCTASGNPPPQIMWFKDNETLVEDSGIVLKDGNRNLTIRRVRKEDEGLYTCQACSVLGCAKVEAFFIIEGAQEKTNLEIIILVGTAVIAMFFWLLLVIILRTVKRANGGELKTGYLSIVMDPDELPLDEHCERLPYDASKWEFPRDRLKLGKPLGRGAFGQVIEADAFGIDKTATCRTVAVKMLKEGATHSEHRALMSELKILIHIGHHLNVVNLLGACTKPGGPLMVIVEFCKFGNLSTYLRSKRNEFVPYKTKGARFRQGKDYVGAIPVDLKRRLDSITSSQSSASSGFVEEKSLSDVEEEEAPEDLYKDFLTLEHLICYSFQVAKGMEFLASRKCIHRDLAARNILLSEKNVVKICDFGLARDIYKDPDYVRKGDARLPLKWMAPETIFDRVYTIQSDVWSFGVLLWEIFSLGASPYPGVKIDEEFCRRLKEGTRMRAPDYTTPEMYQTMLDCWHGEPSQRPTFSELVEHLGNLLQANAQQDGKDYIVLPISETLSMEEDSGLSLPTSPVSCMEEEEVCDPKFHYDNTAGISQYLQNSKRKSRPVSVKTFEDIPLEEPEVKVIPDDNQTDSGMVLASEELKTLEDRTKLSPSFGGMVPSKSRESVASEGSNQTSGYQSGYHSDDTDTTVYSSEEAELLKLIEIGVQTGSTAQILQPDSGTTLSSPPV
UniProt P35918, residues 20-762: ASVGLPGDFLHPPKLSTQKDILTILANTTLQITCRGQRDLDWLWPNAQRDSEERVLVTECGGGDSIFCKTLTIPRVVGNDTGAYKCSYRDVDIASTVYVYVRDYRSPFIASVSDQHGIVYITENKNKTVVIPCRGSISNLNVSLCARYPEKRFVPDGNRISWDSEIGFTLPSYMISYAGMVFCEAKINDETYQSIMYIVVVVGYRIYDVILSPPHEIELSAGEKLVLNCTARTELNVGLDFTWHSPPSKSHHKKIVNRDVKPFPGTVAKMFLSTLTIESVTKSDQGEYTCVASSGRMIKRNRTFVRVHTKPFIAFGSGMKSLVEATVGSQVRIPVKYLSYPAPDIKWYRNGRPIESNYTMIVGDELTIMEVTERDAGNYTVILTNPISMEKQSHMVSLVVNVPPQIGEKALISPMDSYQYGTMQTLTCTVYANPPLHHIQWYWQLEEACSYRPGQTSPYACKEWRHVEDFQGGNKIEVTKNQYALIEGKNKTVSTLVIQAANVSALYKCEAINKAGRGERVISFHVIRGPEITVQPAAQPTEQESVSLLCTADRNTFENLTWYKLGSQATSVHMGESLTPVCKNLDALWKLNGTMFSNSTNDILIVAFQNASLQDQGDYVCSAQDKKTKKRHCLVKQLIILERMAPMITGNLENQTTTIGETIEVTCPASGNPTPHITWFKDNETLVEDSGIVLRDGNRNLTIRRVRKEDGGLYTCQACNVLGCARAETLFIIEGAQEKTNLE

For test [1], the target named is full-length human KDR on CHO-KDR cells (human) (UniProt P35968). The experiment in a line: flow cytometry on CHO-KDR cells, His6-tagged binder, anti-His6 MAb and Alexa Fluor 488 anti-mouse antibody. In general terms: In flow cytometry, cells or beads pass a laser one at a time.
Test [2] deals with mouse vascular endothelial growth factor receptor-2 Fc chimera (Flk-1-Fc) (mouse) (UniProt P35918). The test can be described thus: radioactive equilibrium binding assay, saturation binding, Flk-1-Fc 0-50 nM.
Test [3] shares this target. The test can be described thus: radioactive equilibrium binding assay, 1 nM Flk-1-Fc, percent bound, average of 3 experiments.

Positions count from the first letter of the chain named. Results are given in words; binding and its absence hold for the method and conditions named. Some results given as binding are weak or reduced against the parent protein; the word gives no strength. For some assays here: Where a sequence is shown, tags or fusion partners need not be part of it.

B1: E19, E. coli-expressed, His6 (designed binder)
chain: EVVAATPTSLLISWRHPHFPTRYYRITYGETGGNSPVQEFTVPLQPPTATISGLKPGVDYTITGYAVTVERNGRHLMTPISINYRTEIDKPSQHHHHHH
notes: soluble E. coli form; N-terminal residues added for expression not described
On to B1, for which the binding result in test [1] is reported as “binds”.

B2: E18, E. coli-expressed, His6 (designed binder)
chain: B1 chain with H75E, M77N
notes: as for B1
Consider B2, for which the binding entry in test [1] is recorded as “binds”.

B3: E29, E. coli-expressed, His6 (designed binder)
chain: B1 chain with H75V
notes: as for B1
With B3, the binding result in test [1] is “binds”.

B4: E6 (designed binder)
chain: EVVAATPTSLLISWRHPHFPTRYYRITYGETGGNSPVQEFTVPLQPPTATISGLKPGVDYTITGYAVTDGWNGRLLSIPISINYRT
B4: the binding entry in test [2] and in test [3] was “binds” each time.
